These are yes or no findings as the source states them, for the method shown. Binding seen in cells or lysates may run through a third protein. Some binding calls cover weakened binding; strength is not graded here.
Tests used:
[1] = target: Phosphatidylinositol-4-phosphate 5-kinase type 1 alpha (PIP5K1A), endogenous (human (endogenous in HEK293)) (UniProt Q99755); test: co-IP; endogenous PIP5K1A immunoprecipitated from HEK293 cell lysate with anti-PIP5K1A (pre-conjugated with protein A magnetic beads), overnight at 4°C; XPO5 detected by immunoblot; normal IgG as negative control
[2] = target: HA-KAP1 (KRAB-associated protein) (UniProt Q13263); test: co-IP; cells transfected with the HA-tagged bait, lysed 48 h later in IP lysis buffer; anti-HA magnetic beads overnight at 4°C; PIP5K1A detected by immunoblot; normal IgG as negative control
[3] = target: HA-XPO5 (N-terminus tagged) (human) (UniProt Q9HAV4); test: as above

The chains behind the UniProt entries cited, without tags or fusion partners.
UniProt Q99755: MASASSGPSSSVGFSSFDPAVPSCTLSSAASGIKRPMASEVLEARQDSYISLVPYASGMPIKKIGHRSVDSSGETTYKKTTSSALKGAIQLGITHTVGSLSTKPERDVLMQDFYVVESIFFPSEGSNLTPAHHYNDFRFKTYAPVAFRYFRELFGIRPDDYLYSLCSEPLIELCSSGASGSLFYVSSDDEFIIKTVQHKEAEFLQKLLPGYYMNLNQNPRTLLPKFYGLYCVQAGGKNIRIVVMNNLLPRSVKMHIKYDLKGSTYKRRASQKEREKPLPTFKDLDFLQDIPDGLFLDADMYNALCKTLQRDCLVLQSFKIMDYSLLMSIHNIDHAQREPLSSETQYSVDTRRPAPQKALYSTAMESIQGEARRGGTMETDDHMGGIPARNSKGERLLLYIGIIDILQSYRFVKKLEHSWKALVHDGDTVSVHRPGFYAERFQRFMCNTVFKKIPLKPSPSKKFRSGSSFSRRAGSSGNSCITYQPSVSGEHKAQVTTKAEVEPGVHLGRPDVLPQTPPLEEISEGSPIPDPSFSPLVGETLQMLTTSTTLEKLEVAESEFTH
UniProt Q13263: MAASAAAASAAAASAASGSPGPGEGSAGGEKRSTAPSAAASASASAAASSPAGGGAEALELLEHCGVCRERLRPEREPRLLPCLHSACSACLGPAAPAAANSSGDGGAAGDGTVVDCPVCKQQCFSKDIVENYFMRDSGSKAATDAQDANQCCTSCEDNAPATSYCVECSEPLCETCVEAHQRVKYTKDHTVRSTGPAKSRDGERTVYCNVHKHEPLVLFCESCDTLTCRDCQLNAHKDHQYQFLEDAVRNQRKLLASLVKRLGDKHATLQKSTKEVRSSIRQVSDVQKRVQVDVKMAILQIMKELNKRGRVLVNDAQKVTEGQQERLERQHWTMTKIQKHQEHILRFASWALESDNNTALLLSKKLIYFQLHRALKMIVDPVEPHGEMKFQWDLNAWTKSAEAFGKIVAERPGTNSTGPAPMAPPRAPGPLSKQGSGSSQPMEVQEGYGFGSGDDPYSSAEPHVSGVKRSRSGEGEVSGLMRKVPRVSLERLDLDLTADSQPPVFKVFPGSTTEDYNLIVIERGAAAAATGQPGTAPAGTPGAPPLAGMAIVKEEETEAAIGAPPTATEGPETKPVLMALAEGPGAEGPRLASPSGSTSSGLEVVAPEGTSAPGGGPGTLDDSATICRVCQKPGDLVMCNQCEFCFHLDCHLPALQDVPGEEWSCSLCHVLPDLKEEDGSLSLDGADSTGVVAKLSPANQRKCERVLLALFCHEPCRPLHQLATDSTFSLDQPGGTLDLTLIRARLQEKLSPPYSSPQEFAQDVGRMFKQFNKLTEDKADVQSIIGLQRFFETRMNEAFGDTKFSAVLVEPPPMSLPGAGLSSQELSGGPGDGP
UniProt Q9HAV4: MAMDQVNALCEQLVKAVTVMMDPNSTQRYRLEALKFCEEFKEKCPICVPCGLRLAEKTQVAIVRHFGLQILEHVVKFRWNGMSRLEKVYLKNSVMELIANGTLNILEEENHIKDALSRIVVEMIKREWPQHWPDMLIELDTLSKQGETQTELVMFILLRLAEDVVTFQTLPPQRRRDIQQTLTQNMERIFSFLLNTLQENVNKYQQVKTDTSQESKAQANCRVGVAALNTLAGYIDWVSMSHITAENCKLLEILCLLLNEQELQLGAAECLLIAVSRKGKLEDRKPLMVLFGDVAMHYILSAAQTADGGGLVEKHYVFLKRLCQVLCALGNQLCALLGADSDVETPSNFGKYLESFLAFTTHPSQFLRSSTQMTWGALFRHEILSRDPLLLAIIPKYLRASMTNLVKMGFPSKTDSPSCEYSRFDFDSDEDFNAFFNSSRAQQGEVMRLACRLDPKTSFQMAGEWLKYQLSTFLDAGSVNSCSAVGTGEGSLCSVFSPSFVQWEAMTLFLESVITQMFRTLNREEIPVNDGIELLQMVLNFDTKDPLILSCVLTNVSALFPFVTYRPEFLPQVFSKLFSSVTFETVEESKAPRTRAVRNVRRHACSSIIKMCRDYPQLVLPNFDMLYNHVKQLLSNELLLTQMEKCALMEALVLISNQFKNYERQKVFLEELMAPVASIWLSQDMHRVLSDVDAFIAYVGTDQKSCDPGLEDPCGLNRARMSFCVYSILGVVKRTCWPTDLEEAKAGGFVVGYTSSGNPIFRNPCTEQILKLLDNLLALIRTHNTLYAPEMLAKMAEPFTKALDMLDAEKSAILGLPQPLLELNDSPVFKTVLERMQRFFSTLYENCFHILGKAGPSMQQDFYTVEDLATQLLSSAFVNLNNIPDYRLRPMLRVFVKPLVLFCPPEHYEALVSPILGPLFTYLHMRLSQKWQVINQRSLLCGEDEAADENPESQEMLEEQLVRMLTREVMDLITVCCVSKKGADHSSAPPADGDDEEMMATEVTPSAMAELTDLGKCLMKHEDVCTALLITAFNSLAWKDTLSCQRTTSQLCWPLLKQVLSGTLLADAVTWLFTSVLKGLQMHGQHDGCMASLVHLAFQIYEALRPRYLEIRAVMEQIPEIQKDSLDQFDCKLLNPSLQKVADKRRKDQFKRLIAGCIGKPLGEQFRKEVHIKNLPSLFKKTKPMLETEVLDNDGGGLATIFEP

Exportin 5 (XPO5), endogenous (from UniProt Q9HAV4 1-1204)
binding [1]: binds

Phosphatidylinositol-4-phosphate 5-kinase type 1 alpha (PIP5K1A), endogenous (from UniProt Q99755 1-562) (enzyme)
binding [2]: no binding | binding [3]: binds

From paper PMC10570020
